The text below walks through data of US10138280B2 (INSTITUT PASTEUR, priority 2011, dated 2018).

The series is described as follows: general procedure: Fmoc solid-phase peptide synthesis; PS-PHB-Phe Fmoc resin (capacity 0.52 mmol/g), Rapp Polymere; HATU/DIPEA. The note with it: whole synthesis.

End groups of sequences in plain letters are not given here.

Regarding “VHVQYIDGETDQMLRQDDLDGYTDETIPYSTAEGIKKFEGDGYELFKDNFPAGEKFDNDDTNDQFYTVIF”, the “final HPLC purity” value (RP-HPLC, absorbance at 230 nm, LC-MS, scale of the general procedure 100 μmolar) is “above 90%”. Under “overall isolated, scale of the general procedure 100 μmolar”, this sequence yielded an isolated yield of 2%. The crude yield reads like this: (scale of the general procedure 100 μmolar) 76%; (weight yield, scale 100 umol) 66%; (weight yield, scale of the general procedure 100 μmolar) 65%.
